Values of other authors in US20100048679A1, “POLYNUCLEOTIDE THERAPY” (Bayhill Therapeutics, Inc., priority 2006, published 2010).
Some entries share one result that the patent states for a list of compounds.

Tested on: multiple sclerosis (MS)

glatiramer acetate
Reduction of relapse rate: 20-30%

interferon β
Reduction of relapse rate: 20-30%
